Converted amounts (≈) assume the structure as drawn.
Tested on: Klebsiella pneumoniae CCM 4415 (ATCC 10031)
Assay: Antibacterial microdilution broth (EUCAST)
Format: cell-based
Conditions: internal quality control, 95% growth inhibition, 530 nm, 24 h, read-out: MIC (spectrophotometric detection)

Q: How did the MIC turn out when O=C(O)c1cn(C2CC2)c2cc(N3CCNCC3)c(F)cc2c1=O [CIP, ciprofloxacin, reference compound] was run?
A: 0.064 µg/mL (≈ 0.193 µM)

— paper PMC9143880, “Improving Antimicrobial Activity and Physico-Chemical Properties by Isosteric Replacement of 2-Aminothiazole with 2-Aminooxazole” (Pharmaceuticals, 2022)
